{"source": "patent US6514963B2", "about": "“Methods for the inhibition of egg production in trematodes” (The Regents of the University of California, priority 2000, dated 2003)", "test_system": "Echinostoma caproni", "conditions": "24 hours", "note": "Like-named read-outs stand apart in the source and are kept apart here.", "data": [{"smiles": "COC(=O)C1=C(C)NC(C)=C(C(=O)OC)C1c1ccccc1[N+](=O)[O-]", "note": "[nifedipine, 1,4-dihydro-2,6-dimethyl-4-(2-nitrophenyl)-3,5-pyridinedicarboxylic acid dimethylester]", "values": [{"measurement": "effect on egg production compared to controls", "setting": "25 μg/ml (lowest elevated concentration)", "value": "did not significantly inhibit"}, {"measurement": "effect on egg production compared to controls", "setting": "elevated concentrations (microgram range: verapamil 50-200, nifedipine 25-200, diltiazem 5-50 μg/ml), ANOVA", "value": "significantly inhibited"}, {"measurement": "effect on egg production compared to controls", "setting": "therapeutic concentrations (nanogram range)", "value": "approached significant levels"}]}]}
